Results: the supplement of paper PMC10849652
Some of the results follow.

By UniProt entry, the sequences of proteins in these tests, tags left out. Where a name states a change or a piece, a line headed by the entry shows the natural chain unless it says otherwise.
UniProt Q5VTE0, whole entry, looked up: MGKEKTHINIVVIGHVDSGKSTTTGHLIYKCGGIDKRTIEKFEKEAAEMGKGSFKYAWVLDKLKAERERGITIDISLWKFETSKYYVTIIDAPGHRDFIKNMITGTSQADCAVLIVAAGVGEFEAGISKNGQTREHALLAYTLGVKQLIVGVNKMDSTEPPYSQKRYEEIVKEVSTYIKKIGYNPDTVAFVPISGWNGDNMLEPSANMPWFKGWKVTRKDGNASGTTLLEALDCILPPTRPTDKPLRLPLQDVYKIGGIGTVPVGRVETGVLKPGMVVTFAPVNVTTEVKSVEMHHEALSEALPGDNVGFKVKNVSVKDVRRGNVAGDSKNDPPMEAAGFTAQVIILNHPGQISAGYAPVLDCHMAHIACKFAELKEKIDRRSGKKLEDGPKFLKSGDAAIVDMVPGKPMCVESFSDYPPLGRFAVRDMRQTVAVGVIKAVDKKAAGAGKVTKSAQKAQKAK
UniProt Q13347, whole entry, looked up: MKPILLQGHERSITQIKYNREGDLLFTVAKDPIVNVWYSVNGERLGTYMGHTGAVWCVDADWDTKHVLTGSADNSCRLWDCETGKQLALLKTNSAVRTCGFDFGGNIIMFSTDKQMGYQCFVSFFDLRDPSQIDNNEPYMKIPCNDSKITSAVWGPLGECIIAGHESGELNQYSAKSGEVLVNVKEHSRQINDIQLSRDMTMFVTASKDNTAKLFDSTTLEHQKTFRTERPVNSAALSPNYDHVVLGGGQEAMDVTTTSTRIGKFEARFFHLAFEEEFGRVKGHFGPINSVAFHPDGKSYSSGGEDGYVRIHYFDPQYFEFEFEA
UniProt Q9UBQ5, whole entry, looked up: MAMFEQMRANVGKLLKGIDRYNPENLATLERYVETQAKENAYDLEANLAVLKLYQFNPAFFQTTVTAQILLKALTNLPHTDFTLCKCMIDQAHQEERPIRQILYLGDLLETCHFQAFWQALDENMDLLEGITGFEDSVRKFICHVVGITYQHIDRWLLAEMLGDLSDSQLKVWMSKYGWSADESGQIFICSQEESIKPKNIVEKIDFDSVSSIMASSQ
UniProt Q9P0I2: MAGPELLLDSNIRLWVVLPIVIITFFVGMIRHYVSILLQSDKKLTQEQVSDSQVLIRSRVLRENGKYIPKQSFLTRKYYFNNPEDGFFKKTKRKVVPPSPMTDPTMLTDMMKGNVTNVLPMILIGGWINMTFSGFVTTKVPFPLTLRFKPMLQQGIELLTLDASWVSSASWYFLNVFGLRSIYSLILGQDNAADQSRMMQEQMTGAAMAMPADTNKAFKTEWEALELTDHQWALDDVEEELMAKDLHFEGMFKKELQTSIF
UniProt P06733, whole entry, looked up: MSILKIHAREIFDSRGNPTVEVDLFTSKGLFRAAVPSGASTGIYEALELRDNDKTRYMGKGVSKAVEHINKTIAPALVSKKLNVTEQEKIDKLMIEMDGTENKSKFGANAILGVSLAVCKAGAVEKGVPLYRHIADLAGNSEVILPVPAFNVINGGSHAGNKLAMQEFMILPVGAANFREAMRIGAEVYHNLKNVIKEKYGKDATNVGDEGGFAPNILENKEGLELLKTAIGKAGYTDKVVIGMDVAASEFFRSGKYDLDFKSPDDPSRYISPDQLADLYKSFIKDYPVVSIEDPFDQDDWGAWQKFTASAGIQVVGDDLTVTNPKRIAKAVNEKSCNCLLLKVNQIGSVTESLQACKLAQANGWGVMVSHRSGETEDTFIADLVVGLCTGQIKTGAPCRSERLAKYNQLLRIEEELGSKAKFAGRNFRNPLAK
UniProt P98172: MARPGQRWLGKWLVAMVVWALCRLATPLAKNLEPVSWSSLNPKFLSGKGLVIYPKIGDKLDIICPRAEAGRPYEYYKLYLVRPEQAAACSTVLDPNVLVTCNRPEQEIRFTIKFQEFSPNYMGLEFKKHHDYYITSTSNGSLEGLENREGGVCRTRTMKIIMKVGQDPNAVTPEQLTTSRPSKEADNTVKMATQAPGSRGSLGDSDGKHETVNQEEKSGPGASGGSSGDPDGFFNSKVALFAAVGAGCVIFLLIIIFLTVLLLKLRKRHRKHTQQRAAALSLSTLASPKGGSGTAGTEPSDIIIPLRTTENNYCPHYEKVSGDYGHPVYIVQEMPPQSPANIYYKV
UniProt Q96EB1: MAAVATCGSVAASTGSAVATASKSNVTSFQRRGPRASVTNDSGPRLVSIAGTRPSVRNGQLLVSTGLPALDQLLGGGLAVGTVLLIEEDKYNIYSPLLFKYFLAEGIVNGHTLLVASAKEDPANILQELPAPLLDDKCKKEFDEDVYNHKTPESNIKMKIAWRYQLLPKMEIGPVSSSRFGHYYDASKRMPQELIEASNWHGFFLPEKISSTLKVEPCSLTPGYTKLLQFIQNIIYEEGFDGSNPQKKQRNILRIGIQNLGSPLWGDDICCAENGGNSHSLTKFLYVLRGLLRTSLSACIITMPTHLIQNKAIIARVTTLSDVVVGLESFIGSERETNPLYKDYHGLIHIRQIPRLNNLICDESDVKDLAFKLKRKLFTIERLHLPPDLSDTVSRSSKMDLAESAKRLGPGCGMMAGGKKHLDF
UniProt Q9P2K8: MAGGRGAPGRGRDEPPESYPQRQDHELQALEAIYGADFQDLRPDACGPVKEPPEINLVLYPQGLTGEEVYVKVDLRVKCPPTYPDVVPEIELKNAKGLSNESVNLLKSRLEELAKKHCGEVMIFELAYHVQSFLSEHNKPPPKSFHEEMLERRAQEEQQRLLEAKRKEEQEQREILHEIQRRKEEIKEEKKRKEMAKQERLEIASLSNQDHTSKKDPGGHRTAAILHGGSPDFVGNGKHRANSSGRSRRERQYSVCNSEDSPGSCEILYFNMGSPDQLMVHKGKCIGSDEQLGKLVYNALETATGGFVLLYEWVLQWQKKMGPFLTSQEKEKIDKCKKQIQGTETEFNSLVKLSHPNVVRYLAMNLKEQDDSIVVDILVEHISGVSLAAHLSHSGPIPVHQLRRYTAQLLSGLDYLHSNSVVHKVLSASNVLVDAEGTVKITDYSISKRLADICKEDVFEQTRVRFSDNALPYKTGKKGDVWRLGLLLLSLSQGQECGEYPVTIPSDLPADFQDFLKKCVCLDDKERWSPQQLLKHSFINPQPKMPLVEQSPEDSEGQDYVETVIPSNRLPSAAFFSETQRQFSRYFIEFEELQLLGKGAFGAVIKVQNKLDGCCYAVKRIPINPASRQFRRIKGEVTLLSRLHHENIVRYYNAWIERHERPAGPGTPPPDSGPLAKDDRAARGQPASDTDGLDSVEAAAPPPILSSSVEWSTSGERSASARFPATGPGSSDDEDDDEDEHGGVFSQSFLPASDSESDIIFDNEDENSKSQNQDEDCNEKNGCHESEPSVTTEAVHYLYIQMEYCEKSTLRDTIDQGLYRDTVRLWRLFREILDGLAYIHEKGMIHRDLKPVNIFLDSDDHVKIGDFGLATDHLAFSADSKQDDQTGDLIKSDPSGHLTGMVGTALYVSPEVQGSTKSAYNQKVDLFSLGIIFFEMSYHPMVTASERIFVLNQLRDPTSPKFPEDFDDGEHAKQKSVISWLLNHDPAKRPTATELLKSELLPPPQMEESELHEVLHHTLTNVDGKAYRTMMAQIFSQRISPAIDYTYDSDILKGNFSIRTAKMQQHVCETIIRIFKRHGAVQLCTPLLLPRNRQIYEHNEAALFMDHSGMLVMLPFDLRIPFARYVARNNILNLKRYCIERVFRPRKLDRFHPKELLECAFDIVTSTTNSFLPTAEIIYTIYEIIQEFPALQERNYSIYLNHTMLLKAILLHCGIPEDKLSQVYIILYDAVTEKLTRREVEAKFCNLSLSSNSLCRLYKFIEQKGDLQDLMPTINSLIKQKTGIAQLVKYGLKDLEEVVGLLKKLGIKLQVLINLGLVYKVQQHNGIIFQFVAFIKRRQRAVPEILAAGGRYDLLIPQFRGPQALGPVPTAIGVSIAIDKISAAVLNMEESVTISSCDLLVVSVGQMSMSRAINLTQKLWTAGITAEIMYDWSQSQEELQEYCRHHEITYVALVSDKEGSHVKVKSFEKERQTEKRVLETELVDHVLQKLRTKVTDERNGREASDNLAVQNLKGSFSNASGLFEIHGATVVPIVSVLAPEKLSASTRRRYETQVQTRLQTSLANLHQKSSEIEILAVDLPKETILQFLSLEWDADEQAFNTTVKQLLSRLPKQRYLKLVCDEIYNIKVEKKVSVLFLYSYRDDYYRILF
UniProt O60841: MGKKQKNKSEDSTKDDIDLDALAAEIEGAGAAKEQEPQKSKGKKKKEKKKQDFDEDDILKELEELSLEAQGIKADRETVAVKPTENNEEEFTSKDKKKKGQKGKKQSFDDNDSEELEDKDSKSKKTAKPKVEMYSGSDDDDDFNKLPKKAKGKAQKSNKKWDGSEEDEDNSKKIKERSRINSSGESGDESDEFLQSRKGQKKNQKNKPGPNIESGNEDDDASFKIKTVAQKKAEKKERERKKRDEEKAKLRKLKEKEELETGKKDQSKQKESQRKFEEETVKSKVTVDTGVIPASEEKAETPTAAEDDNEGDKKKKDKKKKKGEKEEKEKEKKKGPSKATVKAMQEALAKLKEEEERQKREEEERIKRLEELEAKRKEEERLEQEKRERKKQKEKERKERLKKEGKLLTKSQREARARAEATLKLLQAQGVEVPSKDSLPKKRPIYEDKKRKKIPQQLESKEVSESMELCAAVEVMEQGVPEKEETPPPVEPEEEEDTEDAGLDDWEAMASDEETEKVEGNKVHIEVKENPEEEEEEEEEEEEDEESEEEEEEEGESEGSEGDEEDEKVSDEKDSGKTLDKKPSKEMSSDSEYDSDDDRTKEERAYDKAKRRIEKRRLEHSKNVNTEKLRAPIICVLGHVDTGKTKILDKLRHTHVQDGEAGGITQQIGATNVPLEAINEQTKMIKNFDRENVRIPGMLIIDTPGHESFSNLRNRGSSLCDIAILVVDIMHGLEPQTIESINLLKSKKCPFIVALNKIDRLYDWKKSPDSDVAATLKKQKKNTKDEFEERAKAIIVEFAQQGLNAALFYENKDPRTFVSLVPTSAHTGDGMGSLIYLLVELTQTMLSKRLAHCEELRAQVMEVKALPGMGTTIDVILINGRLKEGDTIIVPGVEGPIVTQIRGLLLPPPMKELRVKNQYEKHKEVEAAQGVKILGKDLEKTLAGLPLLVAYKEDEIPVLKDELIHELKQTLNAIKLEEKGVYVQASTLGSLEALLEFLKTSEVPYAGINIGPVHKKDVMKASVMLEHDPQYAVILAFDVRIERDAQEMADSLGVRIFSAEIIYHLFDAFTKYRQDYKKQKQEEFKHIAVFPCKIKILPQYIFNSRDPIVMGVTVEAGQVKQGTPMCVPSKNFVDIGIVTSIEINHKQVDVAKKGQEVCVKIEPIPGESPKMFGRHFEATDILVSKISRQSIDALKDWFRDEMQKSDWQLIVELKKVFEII
UniProt Q96KQ7: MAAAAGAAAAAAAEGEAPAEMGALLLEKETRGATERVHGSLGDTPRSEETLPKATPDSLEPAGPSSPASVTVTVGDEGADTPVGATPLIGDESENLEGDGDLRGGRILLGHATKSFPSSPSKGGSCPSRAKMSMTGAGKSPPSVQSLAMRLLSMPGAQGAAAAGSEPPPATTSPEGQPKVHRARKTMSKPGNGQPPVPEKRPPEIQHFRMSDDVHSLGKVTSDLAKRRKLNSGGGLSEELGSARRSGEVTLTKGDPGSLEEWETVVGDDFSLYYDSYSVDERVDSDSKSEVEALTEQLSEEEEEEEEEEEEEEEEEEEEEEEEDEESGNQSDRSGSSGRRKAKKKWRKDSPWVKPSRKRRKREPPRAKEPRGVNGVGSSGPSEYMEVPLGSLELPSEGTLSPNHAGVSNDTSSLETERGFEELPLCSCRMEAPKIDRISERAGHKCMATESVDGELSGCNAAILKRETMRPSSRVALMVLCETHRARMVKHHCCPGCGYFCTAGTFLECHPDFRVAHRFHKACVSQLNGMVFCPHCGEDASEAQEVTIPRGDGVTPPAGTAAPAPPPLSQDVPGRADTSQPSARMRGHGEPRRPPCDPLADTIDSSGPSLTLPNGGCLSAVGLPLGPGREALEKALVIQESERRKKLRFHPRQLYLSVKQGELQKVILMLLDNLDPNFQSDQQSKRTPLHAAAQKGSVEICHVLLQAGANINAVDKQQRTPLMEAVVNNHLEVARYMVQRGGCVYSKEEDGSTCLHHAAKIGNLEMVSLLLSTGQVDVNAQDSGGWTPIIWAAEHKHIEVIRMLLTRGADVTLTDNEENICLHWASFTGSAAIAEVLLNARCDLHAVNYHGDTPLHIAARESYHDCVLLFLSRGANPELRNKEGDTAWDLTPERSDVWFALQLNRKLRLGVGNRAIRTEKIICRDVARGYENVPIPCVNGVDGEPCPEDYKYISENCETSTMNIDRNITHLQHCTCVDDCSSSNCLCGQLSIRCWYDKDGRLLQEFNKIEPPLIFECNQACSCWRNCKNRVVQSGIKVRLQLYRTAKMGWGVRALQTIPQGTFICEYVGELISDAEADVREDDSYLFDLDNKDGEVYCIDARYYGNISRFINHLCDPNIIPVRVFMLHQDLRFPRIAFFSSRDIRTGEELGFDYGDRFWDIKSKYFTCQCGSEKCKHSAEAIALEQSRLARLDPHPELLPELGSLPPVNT

Tests used:
Assay in all cases: log2 fold change, soluble protein after heating vs DMSO (PISA); higher = thermal stabilisation; K562 cells, 10 uM, 30 min; active = over 0.2 and 3.5 SD of the protein, either way, in both replicates (recomputed)
[1] = compound: CS(=O)(=O)c1ccc(-c2cnc(N)c(C(=O)Nc3ccccc3)n2)cc1
Summary of the method: (§1)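 Soluble protein was quantified by TMTpro 16plex LC-MS/MS after channel sums were equalised. It was obtained as the supernatant after 21,000xg for 90 min from pooled aliquots of K562 cells (2×10^6 cells/mL, 10 μM compound, 30 min) heated for 3 min across 48°C-58°C and extracted in PBS with 0.5% NP-40 at 4°C. Thermal stability values are relative to control samples and come from duplicates. They are given as log2 fold changes.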

crizotinib = compound: C[C@@H](Oc1cc(-c2cnn(C3CCNCC3)c2)cnc1N)c1c(Cl)ccc(F)c1Cl [crizotinib]
Summary of the method: as §1

[2] = compound: C[C@@H]1COCCN1C2=NC(=NC(=C2)C3(CC3)S(=O)(=O)C)C4=C5C=CNC5=CC=C4
Summary of the method: as §1

[3] = compound: C[C@H](C1=CC=C(C=C1)C(=O)NC2=C3C=CNC3=NC=C2)N
Summary of the method: as §1

duvelisib = compound: C[C@H](Nc1ncnc2nc[nH]c12)c1cc2cccc(Cl)c2c(=O)n1-c1ccccc1 [duvelisib]
Summary of the method: as §1

gandotinib = compound: Cc1cc(Nc2cc(CN3CCOCC3)c3nc(C)c(Cc4ccc(Cl)cc4F)n3n2)n[nH]1 [gandotinib]
Summary of the method: as §1

tozasertib = compound: Cc1cc(Nc2cc(N3CCN(C)CC3)nc(Sc3ccc(NC(=O)C4CC4)cc3)n2)n[nH]1 [tozasertib]
Summary of the method: as §1

[4] = compound: Cc1cc(SCc2sc(-c3ccc(C(F)(F)F)cc3)nc2C)ccc1OCC(=O)O
Summary of the method: as §1

doramapimod = compound: Cc1ccc(-n2nc(C(C)(C)C)cc2NC(=O)Nc2ccc(OCCN3CCOCC3)c3ccccc23)cc1 [doramapimod]
Summary of the method: as §1

ispinesib = compound: Cc1ccc(C(=O)N(CCCN)[C@@H](c2nc3cc(Cl)ccc3c(=O)n2Cc2ccccc2)C(C)C)cc1 [ispinesib]
Summary of the method: as §1

bafetinib = compound: Cc1ccc(NC(=O)c2ccc(CN3CC[C@H](N(C)C)C3)c(C(F)(F)F)c2)cc1Nc1nccc(-c2cncnc2)n1 [bafetinib]
Summary of the method: as §1

[5] = compound: Cc1cccc(CC(=O)N2CCc3c2ccc(-c2cn(C)c4ncnc(N)c24)c3F)n1
Summary of the method: as §1

nilotinib = compound: Cc1cn(-c2cc(NC(=O)c3ccc(C)c(Nc4nccc(-c5cccnc5)n4)c3)cc(C(F)(F)F)c2)cn1 [nilotinib]
Summary of the method: as §1

[6] = compound: Cc1nc(Nc2n[nH]c3c2CN(C(=O)N[C@H](CN(C)C)c2ccccc2)C3(C)C)c2sccc2n1
Summary of the method: as §1

dasatinib = compound: Cc1nc(Nc2ncc(C(=O)Nc3c(C)cccc3Cl)s2)cc(N2CCN(CCO)CC2)n1 [dasatinib]
Summary of the method: as §1

[7] = compound: Cc1ncc(-c2ccnc(Nc3ccc(S(C)(=O)=O)cc3)n2)n1C(C)C
Summary of the method: as §1

[8] = compound: Cn1cc(-c2ccc3c(c2)CCN3C(=O)Cc2cccc(C(F)(F)F)c2)c2c(N)ncnc21
Summary of the method: as §1

[9] = compound: Cn1cc(-c2ccc3nnc(C(F)(F)c4ccc5ncccc5c4)n3n2)cn1
Summary of the method: as §1

tipifarnib = compound: Cn1cncc1[C@@](N)(c1ccc(Cl)cc1)c1ccc2c(c1)c(-c1cccc(Cl)c1)cc(=O)n2C [tipifarnib]
Summary of the method: as §1

mubritinib = compound: FC(F)(F)c1ccc(/C=C/c2nc(COc3ccc(CCCCn4ccnn4)cc3)co2)cc1 [mubritinib]
Summary of the method: as §1

Measured: log2 fold change

EEF1A1P5 (UniProt Q5VTE0)
inactive: [1] 0.036 | crizotinib -0.1 | [2] 0.018 | [3] -0.016 | duvelisib 0.007 | gandotinib -0.047 | tozasertib -0.068 | [4] -0.011 | doramapimod -0.006 | ispinesib -0.004 | bafetinib 0.005 | [5] 0.001 | nilotinib -0.076 | [6] 0.025 | dasatinib -0.006 | [7] -0.017 | [8] 0.045 | [9] 0.019 | tipifarnib -0.019 | mubritinib 0.016

EIF1AD (UniProt Q8N9N8)
inactive: [1] 0.025 | crizotinib 0.057 | [2] 0.056 | [3] -0.019 | duvelisib 0.067 | gandotinib 0.042 | tozasertib -0.029 | [4] -0.027 | doramapimod -0.028 | ispinesib 0.003 | bafetinib -0.054 | [5] 0.003 | nilotinib -0.016 | [6] 0.011 | dasatinib 0.064 | [7] -0.028 | [8] 0.094 | [9] 0.009 | tipifarnib 0.004 | mubritinib 0.02

EIF3I (UniProt Q13347)
inactive: [1] 0.022 | crizotinib -0.137 | [2] -0.019 | [3] 0.143 | duvelisib 0.033 | gandotinib -0.01 | tozasertib 0.063 | [4] 0.146 | doramapimod 0.023 | ispinesib -0.122 | bafetinib 0.076 | [5] 0.055 | nilotinib -0.069 | [6] -0.047 | dasatinib -0.148 | [7] 0.056 | [8] -0.046 | [9] -0.073 | tipifarnib -0.112 | mubritinib -0.003

EIF3K (UniProt Q9UBQ5)
inactive: [1] -0.02 | crizotinib -0.036 | [2] 0.058 | [3] -0.017 | duvelisib 0.034 | gandotinib 0.002 | tozasertib 0.007 | [4] 0.042 | doramapimod 0.06 | ispinesib 0.06 | bafetinib 0.005 | [5] -0.004 | nilotinib -0.037 | [6] -0.009 | dasatinib -0.026 | [7] -0.034 | [8] 0.075 | [9] 0.03 | tipifarnib -0.032 | mubritinib 0

EIF2B5 (UniProt Q13144)
inactive: [1] 0.023 | crizotinib -0.031 | [2] -0.097 | [3] 0.098 | duvelisib -0.052 | gandotinib -0.028 | tozasertib 0.012 | [4] 0.036 | doramapimod 0.006 | ispinesib -0.004 | bafetinib 0.043 | [5] -0.01 | nilotinib -0.022 | [6] -0.064 | dasatinib -0.001 | [7] 0.005 | [8] -0.144 | [9] 0.014 | tipifarnib -0.046 | mubritinib -0.004

EI24 (UniProt O14681)
inactive: [1] 0.005 | crizotinib -0.006 | [2] 0.025 | [3] -0.017 | duvelisib 0.053 | gandotinib -0.015 | tozasertib -0.034 | [4] -0.027 | doramapimod -0.106 | ispinesib -0.028 | bafetinib -0.102 | [5] 0.031 | nilotinib -0.118 | [6] -0.067 | dasatinib -0.039 | [7] 0.018 | [8] 0.08 | [9] 0.021 | tipifarnib -0.031 | mubritinib 0.019

EMC3 (UniProt Q9P0I2)
inactive: [1] 0.032 | crizotinib 0.012 | [2] 0.102 | [3] -0.084 | duvelisib 0.057 | gandotinib -0.251 | tozasertib -0.015 | [4] -0.037 | doramapimod -0.02 | ispinesib 0.002 | bafetinib 0.018 | [5] 0.087 | nilotinib -0.001 | [6] -0.005 | dasatinib -0.08 | [7] -0.023 | [8] 0.054 | [9] -0.056 | tipifarnib -0.013 | mubritinib 0.029

ENO1 (UniProt P06733)
inactive: [1] 0.009 | crizotinib 0.022 | [2] 0.009 | [3] -0.038 | duvelisib 0.018 | gandotinib -0.02 | tozasertib -0.038 | [4] -0.04 | doramapimod -0.02 | ispinesib 0.008 | bafetinib -0.014 | [5] -0.039 | nilotinib 0.048 | [6] -0.007 | dasatinib 0.027 | [7] -0.012 | [8] 0.044 | [9] 0.009 | tipifarnib -0.002 | mubritinib 0.018

EFNB1 (UniProt P98172)
inactive: [1] -0.152 | crizotinib -0.034 | [2] 0.165 | [3] -0.146 | duvelisib -0.003 | gandotinib -0.178 | tozasertib -0.058 | [4] -0.042 | doramapimod 0.186 | ispinesib 0.064 | bafetinib 0.064 | [5] 0.046 | nilotinib 0.062 | [6] 0 | dasatinib 0.264 | [7] -0.039 | [8] 0.013 | [9] -0.07 | tipifarnib 0.05 | mubritinib 0.047

ELP4 (UniProt Q96EB1)
inactive: [1] 0.029 | crizotinib 0.05 | [2] 0.02 | [3] -0.031 | duvelisib 0.026 | gandotinib 0.056 | tozasertib -0.024 | [4] -0.096 | doramapimod 0.174 | ispinesib -0.046 | bafetinib -0.074 | [5] -0.009 | nilotinib -0.008 | [6] 0.02 | dasatinib 0.047 | [7] 0.024 | [8] 0.01 | [9] -0.006 | tipifarnib -0.029 | mubritinib 0.042

EIF2AK4 (UniProt Q9P2K8)
inactive: [1] -0.071 | crizotinib 0.017 | [2] 0.02 | [3] 0.128 | duvelisib 0.003 | gandotinib -0.026 | tozasertib 0.081 | [4] 0.055 | doramapimod 0.077 | ispinesib -0.249 | bafetinib 0.055 | [5] 0.023 | nilotinib -0.045 | [6] -0.113 | dasatinib -0.233 | [7] 0.004 | [8] -0.262 | [9] -0.029 | tipifarnib -0.046 | mubritinib 0.087

Pulled one by one from the entries so far, 2 records:
EIF2AK4 (UniProt Q9P2K8)
inactive: [1] -0.071 | crizotinib 0.017 | [2] 0.02 | [3] 0.128 | duvelisib 0.003 | gandotinib -0.026 | tozasertib 0.081 | [4] 0.055 | doramapimod 0.077 | ispinesib -0.249 | bafetinib 0.055 | [5] 0.023 | nilotinib -0.045 | [6] -0.113 | dasatinib -0.233 | [7] 0.004 | [8] -0.262 | [9] -0.029 | tipifarnib -0.046 | mubritinib 0.087

ENO1 (UniProt P06733)
inactive: [1] 0.009 | crizotinib 0.022 | [2] 0.009 | [3] -0.038 | duvelisib 0.018 | gandotinib -0.02 | tozasertib -0.038 | [4] -0.04 | doramapimod -0.02 | ispinesib 0.008 | bafetinib -0.014 | [5] -0.039 | nilotinib 0.048 | [6] -0.007 | dasatinib 0.027 | [7] -0.012 | [8] 0.044 | [9] 0.009 | tipifarnib -0.002 | mubritinib 0.018

Next part.

EEF2 (UniProt P13639)
inactive: [1] -0.004 | crizotinib 0.018 | [2] 0.026 | [3] -0.062 | duvelisib 0.003 | gandotinib -0.005 | tozasertib -0.027 | [4] -0.041 | doramapimod -0.023 | ispinesib 0.073 | bafetinib 0.006 | [5] 0.003 | nilotinib 0.026 | [6] 0.007 | dasatinib 0.021 | [7] 0.003 | [8] 0.005 | [9] 0.019 | tipifarnib -0.002 | mubritinib 0.016

EMC1 (UniProt Q8N766)
inactive: [1] -0.018 | crizotinib 0.001 | [2] 0.006 | [3] -0.052 | duvelisib 0.008 | gandotinib 0.014 | tozasertib 0.014 | [4] 0.024 | doramapimod 0 | ispinesib -0.003 | bafetinib -0.016 | [5] 0.001 | nilotinib -0.006 | [6] 0.008 | dasatinib -0.026 | [7] -0.029 | [8] 0.009 | [9] 0.032 | tipifarnib 0.009 | mubritinib -0.012

EMC8 (UniProt O43402)
inactive: [1] -0.018 | crizotinib 0.012 | [2] 0.067 | [3] -0.024 | duvelisib 0.005 | gandotinib 0.04 | tozasertib -0.032 | [4] -0.021 | doramapimod -0.016 | ispinesib 0.051 | bafetinib -0.013 | [5] 0.032 | nilotinib 0.034 | [6] -0.004 | dasatinib 0.041 | [7] -0.027 | [8] 0.046 | [9] 0.015 | tipifarnib -0.007 | mubritinib 0.043

EIF5B (UniProt O60841)
inactive: [1] -0.017 | crizotinib 0.023 | [2] -0.102 | [3] 0.02 | duvelisib -0.023 | gandotinib -0.003 | tozasertib 0.038 | [4] 0.035 | doramapimod 0.073 | ispinesib -0.012 | bafetinib 0.093 | [5] 0.073 | nilotinib -0.018 | [6] 0.025 | dasatinib -0.01 | [7] 0.021 | [8] -0.003 | [9] -0.052 | tipifarnib -0.039 | mubritinib 0.014

EHMT2 (UniProt Q96KQ7)
inactive: [1] 0.03 | crizotinib -0.041 | [2] 0.01 | [3] -0.01 | duvelisib 0.086 | gandotinib 0.052 | tozasertib 0.088 | [4] 0.145 | doramapimod -0.048 | ispinesib 0.022 | bafetinib -0.018 | [5] 0.002 | nilotinib 0.016 | [6] -0.053 | dasatinib -0.119 | [7] -0.027 | [8] -0.02 | [9] -0.033 | tipifarnib 0.103 | mubritinib 0.072
